Measured values published in paper doi:10.1101/2021.04.01.437949 (bioRxiv, 2021).
Read-outs that look alike come from different tables or passages of the source. Results are given in words; binding and its absence hold for the method and conditions named. In cells and extracts the contact can be indirect. Some entries that bind do so weakly or less than the wild type. Tags and fused reporters may be left off the sequences shown.

Sequences of proteins named here, by UniProt entry; tags and fusion partners are left off.
UniProt P22147: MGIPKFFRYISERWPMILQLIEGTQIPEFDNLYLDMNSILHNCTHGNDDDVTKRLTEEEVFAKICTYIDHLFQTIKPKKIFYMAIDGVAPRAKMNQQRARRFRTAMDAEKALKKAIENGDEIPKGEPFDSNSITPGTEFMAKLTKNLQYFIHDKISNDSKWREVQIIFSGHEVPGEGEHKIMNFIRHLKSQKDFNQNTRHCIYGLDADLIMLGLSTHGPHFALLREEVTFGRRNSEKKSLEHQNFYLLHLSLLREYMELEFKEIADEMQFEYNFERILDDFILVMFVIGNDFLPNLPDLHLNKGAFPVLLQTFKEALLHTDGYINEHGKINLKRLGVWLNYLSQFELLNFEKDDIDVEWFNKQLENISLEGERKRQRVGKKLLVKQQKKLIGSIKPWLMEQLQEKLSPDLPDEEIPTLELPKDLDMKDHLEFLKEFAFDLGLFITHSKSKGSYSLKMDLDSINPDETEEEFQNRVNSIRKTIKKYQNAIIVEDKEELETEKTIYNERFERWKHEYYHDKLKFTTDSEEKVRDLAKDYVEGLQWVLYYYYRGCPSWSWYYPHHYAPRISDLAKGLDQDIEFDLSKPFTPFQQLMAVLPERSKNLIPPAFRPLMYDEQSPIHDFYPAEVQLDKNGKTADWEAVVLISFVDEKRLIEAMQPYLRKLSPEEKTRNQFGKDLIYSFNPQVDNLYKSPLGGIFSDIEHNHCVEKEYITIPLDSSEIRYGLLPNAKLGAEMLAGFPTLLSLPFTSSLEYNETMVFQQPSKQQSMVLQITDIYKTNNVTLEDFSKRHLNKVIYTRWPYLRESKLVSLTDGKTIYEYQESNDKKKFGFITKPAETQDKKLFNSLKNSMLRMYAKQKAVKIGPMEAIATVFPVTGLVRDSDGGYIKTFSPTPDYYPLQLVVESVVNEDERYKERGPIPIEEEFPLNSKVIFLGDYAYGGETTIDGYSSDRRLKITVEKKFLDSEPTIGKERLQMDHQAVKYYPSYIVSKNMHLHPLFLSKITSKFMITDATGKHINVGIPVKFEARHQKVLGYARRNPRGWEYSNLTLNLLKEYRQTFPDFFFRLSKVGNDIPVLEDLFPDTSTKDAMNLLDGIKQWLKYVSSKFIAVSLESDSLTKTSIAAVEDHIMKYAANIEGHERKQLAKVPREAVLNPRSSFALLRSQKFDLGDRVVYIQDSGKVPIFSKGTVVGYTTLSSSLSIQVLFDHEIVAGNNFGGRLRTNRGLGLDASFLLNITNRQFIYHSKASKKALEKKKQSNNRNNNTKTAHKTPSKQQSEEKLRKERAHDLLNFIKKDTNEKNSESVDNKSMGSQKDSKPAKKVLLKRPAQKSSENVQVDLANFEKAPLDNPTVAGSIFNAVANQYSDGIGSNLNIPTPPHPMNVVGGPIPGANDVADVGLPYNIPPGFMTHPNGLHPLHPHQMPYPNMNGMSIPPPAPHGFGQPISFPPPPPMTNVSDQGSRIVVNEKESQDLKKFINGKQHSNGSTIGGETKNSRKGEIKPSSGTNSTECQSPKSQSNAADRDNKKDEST

Target: T1, TAP-tagged Kap120 (S. cerevisiae, UniProt Q02932 1-1032)
T1 sequence (looked up): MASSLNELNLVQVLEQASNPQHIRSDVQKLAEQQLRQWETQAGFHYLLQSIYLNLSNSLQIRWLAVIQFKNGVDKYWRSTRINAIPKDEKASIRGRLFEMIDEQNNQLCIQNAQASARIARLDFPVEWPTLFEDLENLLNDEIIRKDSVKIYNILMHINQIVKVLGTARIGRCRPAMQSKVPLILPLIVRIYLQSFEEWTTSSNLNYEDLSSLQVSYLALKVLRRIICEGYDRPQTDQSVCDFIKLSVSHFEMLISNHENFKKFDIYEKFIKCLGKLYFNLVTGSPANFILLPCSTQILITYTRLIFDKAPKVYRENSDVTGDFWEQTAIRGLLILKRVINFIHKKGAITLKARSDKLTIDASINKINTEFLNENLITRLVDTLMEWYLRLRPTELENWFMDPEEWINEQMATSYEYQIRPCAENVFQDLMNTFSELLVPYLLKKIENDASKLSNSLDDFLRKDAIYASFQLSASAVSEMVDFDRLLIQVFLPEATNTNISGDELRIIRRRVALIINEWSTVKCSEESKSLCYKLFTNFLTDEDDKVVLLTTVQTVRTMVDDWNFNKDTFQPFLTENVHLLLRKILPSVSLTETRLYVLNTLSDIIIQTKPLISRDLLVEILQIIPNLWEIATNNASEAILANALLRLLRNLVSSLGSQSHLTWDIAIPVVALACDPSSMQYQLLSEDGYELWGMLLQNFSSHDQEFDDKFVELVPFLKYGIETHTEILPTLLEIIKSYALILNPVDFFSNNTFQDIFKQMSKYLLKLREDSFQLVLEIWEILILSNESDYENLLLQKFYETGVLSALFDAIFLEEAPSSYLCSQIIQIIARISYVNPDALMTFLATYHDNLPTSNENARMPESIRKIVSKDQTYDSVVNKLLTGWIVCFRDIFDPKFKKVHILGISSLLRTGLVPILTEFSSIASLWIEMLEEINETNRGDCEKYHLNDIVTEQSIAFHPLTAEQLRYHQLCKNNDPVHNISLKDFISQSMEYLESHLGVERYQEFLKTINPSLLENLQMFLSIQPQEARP
Test: co-IP

Molecule: FLAG-tagged Xrn1 (wild type) (from UniProt P22147 1-1528) (enzyme)
- binding: binds
- binding (record 2): binds

B1: Pat1 (natural protein, S. cerevisiae (endogenous in yeast), UniProt P25644 1-796, looked up)
chain: MSFFGLENSGNARDGPLDFEESYKGYGEHELEENDYLNDETFGDNVQVGTDFDFGNPHSSGSSGNAIGGNGVGATARSYVAATAEGISGPRTDGTAAAGPLDLKPMESLWSTAPPPAMAPSPQSTMAPAPAPQQMAPLQPILSMQDLERQQRQMQQQFMNFHAMGHPQGLPQGPPQQQFPMQPASGQPGPSQFAPPPPPPGVNVNMNQMPMGPVQVPVQASPSPIGMSNTPSPGPVVGATKMPLQSGRRSKRDLSPEEQRRLQIRHAKVEKILKYSGLMTPRDKDFITRYQLSQIVTEDPYNEDFYFQVYKIIQRGGITSESNKGLIARAYLEHSGHRLGGRYKRTDIALQRMQSQVEKAVTVAKERPSKLKDQQAAAGNSSQDNKQANTVLGKISSTLNSKNPRRQLQIPRQQPSDPDALKDVTDSLTNVDLASSGSSSTGSSAAAVASKQRRRSSYAFNNGNGATNLNKSGGKKFILELIETVYEEILDLEANLRNGQQTDSTAMWEALHIDDSSYDVNPFISMLSFDKGIKIMPRIFNFLDKQQKLKILQKIFNELSHLQIIILSSYKTTPKPTLTQLKKVDLFQMIILKIIVSFLSNNSNFIEIMGLLLQLIRNNNVSFLTTSKIGLNLITILISRAALIKQDSSRSNILSSPEISTWNEIYDKLFTSLESKIQLIFPPREYNDHIMRLQNDKFMDEAYIWQFLASLALSGKLNHQRIIIDEVRDEIFATINEAETLQKKEKELSVLPQRSQELDTELKSIIYNKEKLYQDLNLFLNVMGLVYRDGEISELK
- binding: binds
